The campaign covered roughly 52,000 sequences. About 210 (0.4%) were called active.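 The calls were made as follows: active = gene whose silencing raises cell survival under the drug, median off-target-corrected z-score across its silencing RNAs 2 or more; inactive = the rest.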 The list shows a part of the results.

The assay can be described thus: Resistance to Poly (ADP-Ribose) Polymerase inhibitor: Gene Identification via Genome-wide siRNA Screen. As to conditions: mouse BRCA2 R2336H ES cells, olaparib, CellTiter-Glo viability; active compounds read high. The method, boiled down:
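Mouse BRCA2 R2336H ES cells were reverse-transfected with siRNA (20 nM final), treated at 48 h with 500 nM olaparib, and read by CellTiter-Glo after 72 h. Scores: MAD-based z per siRNA, median per gene, seed off-target correction.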
On the technique in general: Cellular ATP, detected with luciferase, serves as a proxy for viable cell number.
For GGAAGACUUCGUGUUGACATT against Proz, the z-score was inactive: -0.913.
In the case of GGCUCAAAGUUUUCAGAGATT against Kctd14, the z-score is inactive: -0.776.
In the case of GGUGACACCCAGAAUGAGCTT against Htatsf1, the z-score is inactive: -0.0177.
Consider GGAUAAUCUUGCUGAAAACTT against Scgf, for which the z-score is inactive: 0.415.
For CGACGAAUCUCACACGCUGTT against H2-T23 the value was inactive: 1.73; for CAUUUACAUUCUUAUUACCTT against Olfr473, inactive: -0.963.
As for GGAGAAAAAAUACUUGAUGTT against Ppm1d, the z-score was inactive: 2.41.
As for GGCUGGAGAGGAAAUGAAUTT against Mrpl51, the z-score was inactive: 0.434.
To CGCGCUGCCAGAUACACUATT against Hist1h2bg belongs inactive: 0.26.
For GCUUAGCCAUCAAUGAGGATT against Cog6 the value was inactive: -1.53; for GGUGGUCCAGAAUUUUGCATT against Cotl1, inactive: 0.677; for GGUUACUUUUAUCCUGAAUTT against Hrasls, inactive: 0.396.
Consider CCCUUUGUGUCCUAGAUUGTT against Tex27, for which the z-score is inactive: 0.164.
For GGAACUUUUCAUCCUGAAGTT against Fgl1, the z-score is inactive: -0.334.
In the case of GCUCUGUCGUGAAGAAUGCTT against F11, the z-score was inactive: -1.15.
Turning to GGAACUAUAUACGAUGAUGTT against Usp8, the z-score was inactive: -0.657.
To GGAGAUUCACUUUCUAUCUTT against C76566 belongs inactive: 1.21; to “GGUGGACAACGUGUUUGACTT against 9430023L20Rik”, inactive: 0.163.
For GGAUACCUACCUGGACAGUTT against Dlgap4, the z-score was inactive: -2.03.
For GCUGGAAAUGACACUGCCUTT against C1qtnf7 the value was inactive: -1.73.
Take CGUGAUUAUGGUCGGUGCUTT against Ube2m: the z-score was inactive: 0.6.
To CGAGCGACUAGAAAAUGACTT against Tusc4 belongs inactive: -0.223; to GGCAGAGCAUUUUGAUUUUTT against Cstf2t, inactive: -1.05.
In the case of GGAACUGUCAAACUGAUUUTT against Tlm, the z-score was inactive: -0.447.
To “GCAAAUCCCUCACUAAUUUTT against 2410004N11Rik” belongs inactive: -0.486; to CGUUGGUUGAUUAUUACCUTT against Tsc1, inactive: 0.447.
For GCAACAAUGGUAACCCUCCTT against Ctsg the value was inactive: 0.448; for GCGGACUAGCAGAGCUAUUTT against Dgkq, inactive: -0.988.
Take “GGCCUUCCUUCCCUUAGAGTT against D4Ertd196e”: the z-score is inactive: 1.48.
With GCUUACCUAACAAAUACAATT against Ptplb, the z-score is inactive: -1.37.
Take GAGCACAUCAUGGAACAUCTT against Mcfd2: the z-score is inactive: -0.0387.
On to GGAGAAACUUAAGAGGCUUTT against Trp53bp2, for which the z-score was inactive: -1.42.
Take “GCCACAAGAAUCUCAUUGUTT against C130046B21Rik”: the z-score is inactive: -0.569.
For CCCUGCAUUAGAAAUUGAATT against Sst the value was inactive: 0.811; for GCUACUUCAUGGAAUCUUCTT against Mrgprb8, inactive: -0.283; for “GCCUAUCAUUAACAAGUCATT against A430033K04”, inactive: 0.829.
With GGCCUAAGCAAGUUGCGCATT against Fbxl8, the z-score was inactive: 1.69.
Turning to GCCUAAUUUUGUGUAUUCUTT against Ndrg4, the z-score is inactive: 1.7.
To GGGUUUGAUUAGCUUAAUUTT against Olfr905 belongs inactive: 0.182; to GGUCUGAUAACUCUGGAGGTT against D11Moh34, inactive: 0.0405; to GGAAGUGAAAGUGAAUUGGTT against Tia1, inactive: 0.435.
As to GGAGUUCUGUCCAUUUUGATT against Olfr1198, the z-score is inactive: -0.0939.
For GGAGAAGGAAGAGCUAAAGTT against Tpd52l1 the value was inactive: 0.418.
On to GGUCAGAAGUCCUUACUGGTT against Cyp2d10, for which the z-score is inactive: -0.391.
To “GCACUGAAAGUCUCGAAAGTT against 2410137M14Rik” belongs inactive: -0.00462; to GUCAAAUAUCCAUUAGAAGTT against Abpg, inactive: -0.429.
To GCGACUGACACUAACAGAATT against Wdr51a belongs inactive: -0.446; to GGUUGGUGAUGGCACAAACTT against Cct8, inactive: -3.22.
Turning to “GGACACUGUCCAGAAGUUGTT against 1110007A06Rik”, the z-score was inactive: 0.962.
Take CCAAGCAGAAAAGUUCCUUTT against Tcfe2a: the z-score was inactive: -1.16.
To GGCACUACAACGGAACUCATT against Slco5a1 belongs inactive: -2.64; to GGUGGAGGUGUGAUGGAUUTT against Slamf1, inactive: -1.2.
Turning to “GGUGCAGAGCUUGAGAUGATT against 2700067D09Rik”, the z-score was inactive: -0.0465.
Take GGCAAUGGAAGUUGGAACATT against Ptch1: the z-score is inactive: -0.82.
On to GCUAGUUUUUCAGAUUUCATT against Timm22, for which the z-score was inactive: 1.06.
To GCUAAUAUUGUCGAUGUUATT against Ptger4 belongs inactive: -2.21.
For GGAGUUUCCAUCACGAAGATT against Bmp4 the value was inactive: 0.473; for CGAGGCUAAGAGGAAUCAGTT against Capn5, inactive: -0.079.
For “GGAGGAAAUAAAUAUUGGGTT against 9830005G06Rik”, the z-score is inactive: -0.647.
Consider CGAACUCAUCUACUGCUAUTT against Chst11, for which the z-score is inactive: 0.0657.
To “CCUAUUGAUUGUAUAUCCATT against 4921531G14Rik” belongs inactive: 0.531; to GCACAUUUAUUCAAGAACCTT against Ttn, inactive: -0.189; to GGAAUUAUGCUGCUUUAAUTT against Xrcc2, inactive: 0.312.
In the case of GGGUAACUAUAUCACAUACTT against Cacna1c, the z-score is inactive: 0.88.
Regarding GGCACCAUAGAUGUUUGAGTT against Cyp4f16, the z-score is inactive: 1.71.
“GGUCAAGCUUAAAAAACCCTT against 1700027J05Rik”: the z-score was inactive: -0.341.
“CCAAAGUGUUCCAAAAUCATT against A530054K11Rik”: the z-score is inactive: 1.01.
For “GGAAGAGGAGGAAAACUUGTT against 1700010C24Rik” the value was inactive: 1.66.
On to GGAUGGCUUUGGAGAACACTT against Sat1, for which the z-score was inactive: -1.08.
To GGGAACUUUUUUGAUGGGCTT against Psmb2 belongs inactive: -2.95.
For the sequence GGCAUAUGUCAAUUUGUUATT against Ntsr1, the z-score is inactive: 0.888.
For CCUCAAAAAGUGGGAUGAGTT against Gnpat, the z-score is inactive: -0.521.
Regarding GGUCACUGAACCUAUUUCCTT against Arhgap15, the z-score is inactive: -0.118.
Regarding CCAGACAAUCUUUCACUGCTT against Gstm6, the z-score was inactive: 0.269.
To GGAAAGAAGGGAUUAUCCATT against Faim belongs inactive: 0.233.
Take GGGUUCAGCAUACCCUUCATT against V1re6: the z-score was inactive: -0.586.
GCUCCAGUAUCAAAUCGCUTT against Frmd3: the z-score was inactive: 0.0169.
Regarding GGGUGAUCCAGGUUUGCCATT against Sftpd, the z-score was inactive: 0.398.
CCGCGUGUGCUCCUUUUUGTT against Zcchc3: the z-score is inactive: -0.259.
To “GGGUUAUGAAGACAAACCATT against 2610204L23Rik” belongs inactive: -0.145; to GGAUCAUCUUCUUUGGGUCTT against Aig1, inactive: 0.934; to GGUCUAUCGUUAUUUGAUATT against Man1a, inactive: 1.11.
As to GGAAAAUAAGUUGUCUGUCTT against Olfr120, the z-score is inactive: -2.4.
As to “GGAAGUGUGCUUUCUUUCCTT against C130086A10”, the z-score was inactive: -0.422.
Take GCAGACUCAUGCACUUGAATT against Olfr1165: the z-score is inactive: 2.18.
To “GCCCUCAUACCUACUAUGUTT against 4631405J19Rik” belongs inactive: 1.74.
For GGGAAGCCUUACUUAUUGGTT against V1rb3 the value was inactive: -0.658; for “GCAACCGAAGAAUGUUUACTT against C330008L01Rik”, inactive: 0.323.
For GGCCUGCGUUCAGAAGAGUTT against Wrn the value was inactive: 0.0774.
With GGCCAUCUAAUGACCUUCATT against Madd, the z-score is inactive: -1.39.
To GGUUUUCUUUCCUUCUUGGTT against Abcd4 belongs inactive: -0.269.
For the sequence CCUGAAGAUUUUAUGGACGTT against Gpatc1, the z-score was inactive: 0.529.
Regarding “GGAAGAUGCACAUCUGGACTT against 2310057D15Rik”, the z-score is inactive: 0.28.
Regarding “GGCCUACCUAUAGAAAUGATT against D230012E17Rik”, the z-score was inactive: 0.914.
Consider GGAUGUCGAGACCAUAAUCTT against Clcn5, for which the z-score was inactive: -0.363.
For GGAUGAUCUGGUCCUUUUGTT against Stx17 the value was inactive: -0.268; for “CCCUAGGCCUACCUAAUGATT against 2900055D14Rik”, inactive: -2.84.
Regarding “GGCUAUGUCUGUUUCCUUUTT against Defcr-rs10”, the z-score is inactive: 0.844.
Turning to GGAAGGACCAAAGCUUUCUTT against Olfr1123, the z-score is inactive: 0.0121.
In the case of “GGAGAAUGGUCUUAGGUUUTT against 2410129E14Rik”, the z-score was inactive: 0.245.
For CGAACAACUUGAAGUCACUTT against Tpm1 the value was inactive: -0.916; for GGUUGUUUUCCCUAGGGUGTT against Sema6a, inactive: -0.681; for GGUCAAAAUUUCCAAACUCTT against Gpr34, inactive: 0.592.
Regarding CGGUGCAUCCAAAUUCACATT against LOC434377, the z-score is inactive: 0.557.

For the origin of these results see PubChem BioAssay AID1347423 (Functional Genomics Laboratory (NCATS/FGL), 2020).
